# Among all 340,000 compounds or so, about 4,500 (1.3%) were called active. Inconclusive means that the source gave no clear call. Such entries were picked first, then a sample of the others. Calls come from the whole dose curve; as a rule, active = well fitted inhibition curve with a large enough effect; inconclusive = small, poorly fitted or top-dose-only effect, or another doubt; inactive = no such curve, though single readings can be large or run the other way. Potencies of inconclusive entries are doubtful fits and often do not repeat.
# Target: DNA polymerase beta (Homo sapiens) (UniProt P06746)
# Assay: qHTS Assay for Inhibitors of DNA Polymerase Beta
# Conditions: Pol beta primer extension/strand displacement, fluorescence kinetic; activity change, negative = inhibition: at 114 µM (top of the series)
# Summary of the method: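 Pol beta (10 nM) was preincubated with compound for 15 min at room temperature. The reaction was then started with 50 nM substrate and read immediately and after a further 10 min at room temperature.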
# % is set by controls: 0 for no effect and ±100 for the full control effect; potency is the fitted concentration of half-maximal effect.
SMILES,"activity change, negative = inhibition",Potency
COc1ccc2nc(C)cc(Nc3ccc(N4CCN(C)CC4)cc3)c2c1,inconclusive: -96.3% [inhibitor],
CC(C)(C)c1ccc(C(=O)c2cn[nH]c2-c2ccccc2O)cc1,,"inconclusive: 14.1 µM [inhibitor, partial curve]"
NC(=S)NNc1ccc(Cl)c(Cl)c1,,inactive
COc1cccc(C(C(=O)NC2CCCC2)N(C(=O)c2ccco2)c2ccc(-n3cnnn3)c(C)c2)c1OC (stereo unspecified),,"inconclusive: 28.2 µM [inhibitor, single point]"
Cc1ccc(CN2CCN(/N=C/c3ccc(O)c(O)c3)CC2)cc1,,"inconclusive: 15.8 µM [inhibitor, full curve]"
CCOc1ccc(-n2c(SCC(=O)N3CCc4ccccc43)nnc2-c2c[nH]c3ccccc23)cc1,,active: 1 µM
Cc1cc(C)c2nc(Nc3nc(-c4ccccc4)cc(=O)[nH]3)nc(C)c2c1,,"inconclusive: 3.16 µM [inhibitor, full curve, poor fit]"
Cc1nn(-c2ccccc2)cc1/C=N/NC(=O)c1cccs1,,"inconclusive: 39.8 µM [inhibitor, partial curve, poor fit]"
CCOC(=O)c1cc(-c2ccccc2)nn1Cc1ccccc1,,"inconclusive: 39.8 µM [inhibitor, single point]"
N#Cc1ccc(COc2ccc(CCO)cc2-n2nc3ccccc3n2)cc1,,"inconclusive: 2.82 µM [inhibitor, single point]"
CCCC(=O)Nc1ccc(C(=O)Nc2cccc(OC)c2)cc1,,"inconclusive: 89.1 µM [inhibitor, single point]"
COc1cccc(-c2nc(CS(=O)(=O)CC(=O)NCCc3ccccc3)c(C)o2)c1,,inactive
O=C1C=C(c2ccccc2)OC(c2ccccc2)O1 (stereo unspecified),,active: 11.2 µM
C/C(O)=C\c1nc(=O)c2c(C)cc(C)nc2n1-c1ccccc1,,"inconclusive: 5.62 µM [inhibitor, full curve]"
COC(=O)N/N=C/c1ccc(-c2cccc(Cl)c2)o1,,inactive
Cc1cc(Cl)ccc1NC(=O)C1CCN(S(=O)(=O)c2ccc3[nH]c(=O)ccc3c2)CC1,,"inconclusive: 44.7 µM [inhibitor, partial curve, poor fit]"
Cc1ccc2nc(SC(Cc3cc(Cl)ccc3Cl)C(=O)O)[nH]c2c1 (stereo unspecified),,"inconclusive: 89.1 µM [inhibitor, single point]"
COc1ccc(N(C(=O)COc2cccc(C)c2)S(=O)(=O)c2ccc(C)cc2)cc1,,"inconclusive: 89.1 µM [inhibitor, single point]"
CSCCC1NC2(C(=O)Nc3ccc(Cl)cc32)[C@@H]2C(=O)N(C3CCCC3)C(=O)[C@H]12 (stereo partly specified),,"inconclusive: 39.8 µM [inhibitor, full curve]"
O=[N+]([O-])c1cccc(S(=O)(=O)N2CCc3ccccc3C2)c1,,"inconclusive: 100 µM [inhibitor, single point]"
CCOC(=O)N1CCc2c(sc3c2c(=O)n(Cc2ccccc2)c(=O)n3CC(=O)Nc2ccccc2F)C1,,inactive
CC1(C)CC(=O)C2=C(C1)NC(Nc1nc3ccccc3o1)=NC2c1ccccn1 (stereo unspecified),,inactive
COc1cc2c(ccc3cc(OC)c(OC)c(O)c32)cc1O,,active: 1.41 µM
CCC(NC(=O)COc1cc2c(c3oc(=O)c(C)c(C)c13)CCC(C)(C)O2)C(=O)O (stereo unspecified),,inactive

# Sorted by length of the SMILES (high to low): 5 of the compounds above.
SMILES,"activity change, negative = inhibition",Potency
CCOC(=O)N1CCc2c(sc3c2c(=O)n(Cc2ccccc2)c(=O)n3CC(=O)Nc2ccccc2F)C1,,inactive
COc1ccc(N(C(=O)COc2cccc(C)c2)S(=O)(=O)c2ccc(C)cc2)cc1,,"inconclusive: 89.1 µM [inhibitor, single point]"
CC1(C)CC(=O)C2=C(C1)NC(Nc1nc3ccccc3o1)=NC2c1ccccn1 (stereo unspecified),,inactive
COc1cc2c(ccc3cc(OC)c(OC)c(O)c32)cc1O,,active: 1.41 µM
CCOC(=O)c1cc(-c2ccccc2)nn1Cc1ccccc1,,"inconclusive: 39.8 µM [inhibitor, single point]"

# Following part:

SMILES,"activity change, negative = inhibition",Potency
COc1cccc(/C=C(\C#N)c2nc3ccc(C)cc3[nH]2)c1,,"inconclusive: 35.5 µM [inhibitor, full curve]"
CC(=O)c1cccc(N(CC(=O)NC2CCCC2)C(=O)c2csnn2)c1,,inactive
CCOc1ccc(NC(=O)CSc2oc(-c3cccs3)nc2S(=O)(=O)c2ccc(Cl)cc2)cc1,,inactive
Cc1ccc(S(=O)(=O)Cc2ccc(C(=O)N3CCN(c4cc(C)ccc4C)CC3)o2)cc1,,active: 39.8 µM
CCOc1ccc(CNC(=O)c2cnc(SC)nc2CC)cc1,,"inconclusive: 89.1 µM [inhibitor, single point]"
CCCCOCC1CN(c2ccccc2)C(=O)CS1 (stereo unspecified),,"inconclusive: 10 µM [inhibitor, partial curve]"
O=C(O)c1ccc(S(=O)(=O)N(CCc2ccccc2)Cc2ccc(Cl)cc2)cc1,,active: 50.1 µM
O=C(CSC1=Nc2ccccc2C2=NC(CCC(=O)NC3CCCCC3)C(=O)N12)Nc1cccc(Cl)c1 (stereo unspecified),,inactive
COc1ccccc1NS(=O)(=O)c1cccc(C(=O)NCc2ccco2)c1,,"inconclusive: 89.1 µM [inhibitor, single point]"
O=C(O)CC(C(=O)N(c1ccccc1)c1ccccc1)N1CCOCC1 (stereo unspecified),,"inconclusive: 25.1 µM [inhibitor, single point]"
O=C(O)Cn1c2c(c3ccccc31)CSc1ccc(Cl)cc1-2,,"inconclusive: 89.1 µM [inhibitor, partial curve, poor fit]"
Cc1ccc(NC(=S)/N=C(\N)Nc2nc(C)c3cc(C)c(C)cc3n2)cc1C,,inactive
O=C(O)c1cc(N/N=C/c2ccc(N3CCOCC3)s2)ccc1Cl,,active: 31.6 µM
COc1cc(/C=C/c2nnc3c4ccccc4ncn23)cc(OC)c1OC,,"inconclusive: 17.8 µM [inhibitor, partial curve]"
CCOC(=O)N1CCC(N2CCN(c3cc(C)ccc3C)CC2)CC1,,inactive
CCN(Cc1nc(-c2ccc(OC)cc2)oc1C)S(=O)(=O)c1ccc(Cl)cc1,,"inconclusive: 89.1 µM [inhibitor, single point]"
Cc1ccc2nc(CSc3nnc(-c4ccco4)o3)cc(=O)n2c1,,"inconclusive: 7.94 µM [inhibitor, full curve]"
CCOc1ccc(CCNC(=O)CS(=O)Cc2nc(-c3ccccc3C)oc2C)cc1OCC (stereo unspecified),,inactive
CCOC(=O)N1CCN(S(=O)(=O)c2ccc3c4c(cccc24)C(=O)N3)CC1,,inactive
CCOc1ccc(C(=O)N2CCN(Cc3cc(=O)n4nc(-c5cccc(OC)c5)sc4n3)CC2)cc1,,"inconclusive: 44.7 µM [inhibitor, partial curve]"
Clc1ccccc1CN(Cc1ccco1)Cc1nnnn1C1CCCC1,,"inconclusive: 70.8 µM [inhibitor, partial curve, poor fit]"
COc1ccc(NC(=S)NNC(=O)C(C)n2nc(C)c([N+](=O)[O-])c2C)cc1 (stereo unspecified),,"inconclusive: 100 µM [inhibitor, single point]"
C=CCc1ccc(OCCOc2ccc(/C=N/n3cnnc3)cc2OCC)c(OC)c1,,"inconclusive: 89.1 µM [inhibitor, single point]"
CCN1C(=O)c2ccccc2Sc2ccc(NC(=O)Nc3ccc(C(C)=O)cc3)cc21,,"inconclusive: 17.8 µM [inhibitor, full curve]"

SMILES,"activity change, negative = inhibition",Potency
CCOC(=O)Cc1csc(NC(=O)CCN2C(=O)c3ccccc3C2=O)n1,,"inconclusive: 89.1 µM [inhibitor, single point]"
Nc1cc(C(=O)O)ccc1N1CCCCC1,,"inconclusive: 70.8 µM [inhibitor, single point]"
CCCCC1=CC2=CC(=O)C(C)(OC(=O)CC)C(=O)C2=CN1Cc1ccco1 (stereo unspecified),,"inconclusive: 50.1 µM [inhibitor, partial curve]"
CCc1c(C(=O)NCCc2ccc(OC)c(OC)c2)[nH]c(C)c1C(C)=O,,"inconclusive: 0.355 µM [inhibitor, full curve, poor fit]"
O=C(c1cccs1)C1CCCN(Cc2nc(Cc3ccccc3F)no2)C1 (stereo unspecified),,inactive
Cc1ccc(CNC(=O)COCc2cc(-c3ccc4c(c3)OCO4)on2)cc1,,inactive
O=C(OCc1ccco1)c1ccc(S(=O)(=O)N2CCCCC2)cc1,,"inconclusive: 11.2 µM [inhibitor, full curve]"
O=C(NCc1cccc(Br)c1)c1ccc(-n2cnc3cccnc32)cc1,,"inconclusive: 15.8 µM [inhibitor, full curve]"
Cc1ccc(-n2ncc3c(N4CCC(C)CC4)ncnc32)cc1C,,inactive
COc1ccc(C(C(=O)NCc2ccccc2)N(C(=O)Cn2nnc3ccccc32)c2ccc(F)cc2)cc1 (stereo unspecified),,inactive
CCOc1cc(/C=C2\SC(=Nc3ccc(F)cc3)N(c3ccc(F)cc3)C2=O)ccc1OCC(=O)O,,inactive
N#C/C(=C\c1ccc(OCc2ccc(C(=O)O)cc2)cc1)C(=O)N1CCOCC1,,inactive
CC(C)(C)/C=N/NC(=O)C1CC1,,"inconclusive: 0.224 µM [inhibitor, full curve]"
CCn1nc2cc(C(=O)NCCc3cccs3)ccc2c1OC,,"inconclusive: 39.8 µM [inhibitor, single point]"
CCOc1ccc(C(=O)Nc2cccc3cccnc23)cc1,,"inconclusive: 70.8 µM [inhibitor, single point]"
CC(=O)N1c2ccc(S(=O)(=O)N3CCCCC3)cc2CC1C(=O)NCc1cccc(Cl)c1 (stereo unspecified),inconclusive: -31.6% [inhibitor],
S=c1[nH]nc(-c2ccncc2)n1/N=C/c1ccccc1,,inactive
Cc1cc(N(C)C)ccc1N=Nc1ccc2ncccc2c1,,inactive
O=C(CCn1cnc(-c2ccccc2)c1-c1ccccc1)N/N=C/c1ccccc1O,,"inconclusive: 89.1 µM [inhibitor, single point]"
CCCN(C(=O)Cn1c(=O)oc2cc(Cl)ccc21)c1ccc(C(C)C)cc1,,"inconclusive: 11.2 µM [inhibitor, single point]"
CCOC(=O)C1=C(N)N2C(=O)C(C)SC2=C(C(=O)OC)C1c1ccccc1OC (stereo unspecified),,"inconclusive: 89.1 µM [inhibitor, single point]"
Oc1ccccc1Oc1c(F)c(F)nc(N2CCCC2)c1F,,active: 44.7 µM

# — PubChem BioAssay AID485314 (National Center for Advancing Translational Sciences (NCATS), 2010)
